Reference: publication PMC6428816
These are yes or no findings as the source states them, for the method shown. Binding seen in cells or lysates may run through a third protein. Binding can be weak; no strength is given.

Biological target: T1, caveolin-1 (rat (endogenous in rat pup intestine)) (UniProt P41350)
T1 sequence: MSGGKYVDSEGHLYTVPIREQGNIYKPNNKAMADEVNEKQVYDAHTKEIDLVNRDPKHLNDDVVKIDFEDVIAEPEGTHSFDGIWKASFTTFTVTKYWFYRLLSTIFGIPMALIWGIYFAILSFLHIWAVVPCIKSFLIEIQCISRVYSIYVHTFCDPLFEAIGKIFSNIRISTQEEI
Experiment: co-IP; rat intestine lysates immunoprecipitated with anti-caveolin-1 or anti-claudin 2 antibody, irrelevant IgG as negative control, western blot for claudin 2 and caveolin-1; rats: control, NEC, ROCK inhibitor (RI), RI + NEC

binding: binds
Substance: claudin 2 (rat (endogenous in rat pup intestine))
